This note sets out measurements from the supplement of paper PMC7666118.

By UniProt entry, the sequences of proteins in these tests, tags left out. Where a name states a change or a piece, a line headed by the entry shows the natural chain unless it says otherwise.
UniProt Q8N8N7: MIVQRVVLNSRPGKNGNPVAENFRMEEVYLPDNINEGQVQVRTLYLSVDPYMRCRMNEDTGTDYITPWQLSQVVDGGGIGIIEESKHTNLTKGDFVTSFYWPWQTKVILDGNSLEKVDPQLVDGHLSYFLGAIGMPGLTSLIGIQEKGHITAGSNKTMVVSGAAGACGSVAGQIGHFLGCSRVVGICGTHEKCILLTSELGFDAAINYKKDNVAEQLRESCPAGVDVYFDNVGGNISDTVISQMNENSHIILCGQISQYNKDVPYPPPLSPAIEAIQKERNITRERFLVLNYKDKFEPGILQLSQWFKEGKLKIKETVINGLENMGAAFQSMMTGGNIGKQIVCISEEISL
UniProt P11908: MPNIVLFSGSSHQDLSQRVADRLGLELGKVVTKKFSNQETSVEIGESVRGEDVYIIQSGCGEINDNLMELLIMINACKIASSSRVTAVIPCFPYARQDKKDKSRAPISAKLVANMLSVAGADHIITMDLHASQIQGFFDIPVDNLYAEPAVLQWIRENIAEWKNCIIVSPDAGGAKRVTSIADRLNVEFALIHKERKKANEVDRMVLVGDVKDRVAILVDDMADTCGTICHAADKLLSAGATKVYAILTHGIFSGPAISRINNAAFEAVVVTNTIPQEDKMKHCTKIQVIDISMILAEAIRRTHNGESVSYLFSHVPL
UniProt P36873, whole entry, looked up: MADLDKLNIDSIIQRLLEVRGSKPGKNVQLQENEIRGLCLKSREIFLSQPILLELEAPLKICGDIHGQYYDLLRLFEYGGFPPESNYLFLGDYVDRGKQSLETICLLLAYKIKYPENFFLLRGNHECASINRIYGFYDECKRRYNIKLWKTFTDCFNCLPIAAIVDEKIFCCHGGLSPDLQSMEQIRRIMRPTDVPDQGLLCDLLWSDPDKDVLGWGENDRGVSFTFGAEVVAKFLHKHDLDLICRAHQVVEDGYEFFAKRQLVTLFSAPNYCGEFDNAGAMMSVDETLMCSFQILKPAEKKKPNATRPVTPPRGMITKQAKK
UniProt P48147: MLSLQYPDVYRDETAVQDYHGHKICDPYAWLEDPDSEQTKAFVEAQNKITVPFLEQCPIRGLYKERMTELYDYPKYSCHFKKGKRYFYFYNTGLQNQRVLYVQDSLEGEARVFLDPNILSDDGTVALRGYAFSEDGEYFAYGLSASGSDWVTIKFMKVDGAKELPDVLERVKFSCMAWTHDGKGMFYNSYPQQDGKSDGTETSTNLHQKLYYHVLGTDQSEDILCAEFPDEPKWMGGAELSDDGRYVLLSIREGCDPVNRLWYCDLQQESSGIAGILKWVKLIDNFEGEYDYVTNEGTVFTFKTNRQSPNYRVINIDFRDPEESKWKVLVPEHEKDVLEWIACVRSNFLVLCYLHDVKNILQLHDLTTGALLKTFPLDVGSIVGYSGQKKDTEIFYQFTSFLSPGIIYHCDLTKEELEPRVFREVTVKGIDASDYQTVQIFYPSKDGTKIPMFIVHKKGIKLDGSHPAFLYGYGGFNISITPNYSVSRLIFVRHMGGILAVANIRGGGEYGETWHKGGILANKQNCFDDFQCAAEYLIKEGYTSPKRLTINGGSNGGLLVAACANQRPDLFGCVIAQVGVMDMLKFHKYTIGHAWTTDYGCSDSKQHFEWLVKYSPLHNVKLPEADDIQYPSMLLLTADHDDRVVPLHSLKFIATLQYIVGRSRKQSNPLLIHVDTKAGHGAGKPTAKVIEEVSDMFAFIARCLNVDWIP
UniProt P60484: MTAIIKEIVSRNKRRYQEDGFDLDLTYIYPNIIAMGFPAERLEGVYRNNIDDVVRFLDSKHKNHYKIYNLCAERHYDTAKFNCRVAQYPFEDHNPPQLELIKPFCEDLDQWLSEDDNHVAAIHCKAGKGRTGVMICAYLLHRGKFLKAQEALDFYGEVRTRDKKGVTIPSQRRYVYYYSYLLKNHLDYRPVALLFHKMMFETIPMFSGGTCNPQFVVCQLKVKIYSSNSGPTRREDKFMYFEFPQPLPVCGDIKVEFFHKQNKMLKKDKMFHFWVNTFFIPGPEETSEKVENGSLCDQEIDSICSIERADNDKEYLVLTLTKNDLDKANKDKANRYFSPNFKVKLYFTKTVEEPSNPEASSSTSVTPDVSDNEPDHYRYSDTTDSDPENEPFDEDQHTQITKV
UniProt Q9P0J1: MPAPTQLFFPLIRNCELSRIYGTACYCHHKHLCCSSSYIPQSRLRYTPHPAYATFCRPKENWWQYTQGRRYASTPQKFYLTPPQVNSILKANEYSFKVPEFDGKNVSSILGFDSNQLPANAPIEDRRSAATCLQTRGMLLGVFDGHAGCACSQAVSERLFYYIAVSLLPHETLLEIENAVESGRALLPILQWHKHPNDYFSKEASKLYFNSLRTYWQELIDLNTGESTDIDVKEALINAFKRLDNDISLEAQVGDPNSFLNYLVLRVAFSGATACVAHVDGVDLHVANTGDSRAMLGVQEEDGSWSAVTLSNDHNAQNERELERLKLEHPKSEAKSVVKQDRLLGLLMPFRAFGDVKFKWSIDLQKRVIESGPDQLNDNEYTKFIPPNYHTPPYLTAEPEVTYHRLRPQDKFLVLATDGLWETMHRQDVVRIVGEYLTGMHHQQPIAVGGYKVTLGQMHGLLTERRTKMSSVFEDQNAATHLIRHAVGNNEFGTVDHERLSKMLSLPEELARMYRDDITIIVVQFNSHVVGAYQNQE
UniProt P48556: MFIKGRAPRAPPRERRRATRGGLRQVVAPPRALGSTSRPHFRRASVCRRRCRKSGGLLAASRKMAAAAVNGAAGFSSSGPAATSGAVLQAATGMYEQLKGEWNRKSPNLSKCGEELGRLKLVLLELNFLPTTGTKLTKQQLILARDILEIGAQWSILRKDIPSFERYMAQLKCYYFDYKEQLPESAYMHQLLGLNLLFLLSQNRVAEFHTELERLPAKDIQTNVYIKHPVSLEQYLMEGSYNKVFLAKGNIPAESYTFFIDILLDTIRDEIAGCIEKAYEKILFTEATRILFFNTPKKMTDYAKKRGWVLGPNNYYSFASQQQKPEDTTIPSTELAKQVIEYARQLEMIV
UniProt P62140, whole entry: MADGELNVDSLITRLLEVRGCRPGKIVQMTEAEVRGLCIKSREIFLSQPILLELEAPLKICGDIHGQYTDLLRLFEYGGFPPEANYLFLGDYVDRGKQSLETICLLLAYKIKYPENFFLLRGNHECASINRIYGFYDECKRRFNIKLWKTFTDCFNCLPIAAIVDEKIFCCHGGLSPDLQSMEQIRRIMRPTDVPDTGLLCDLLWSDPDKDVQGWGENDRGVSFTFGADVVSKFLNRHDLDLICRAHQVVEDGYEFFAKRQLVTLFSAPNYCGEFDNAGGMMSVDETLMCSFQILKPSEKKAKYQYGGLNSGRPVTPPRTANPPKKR
UniProt O75569: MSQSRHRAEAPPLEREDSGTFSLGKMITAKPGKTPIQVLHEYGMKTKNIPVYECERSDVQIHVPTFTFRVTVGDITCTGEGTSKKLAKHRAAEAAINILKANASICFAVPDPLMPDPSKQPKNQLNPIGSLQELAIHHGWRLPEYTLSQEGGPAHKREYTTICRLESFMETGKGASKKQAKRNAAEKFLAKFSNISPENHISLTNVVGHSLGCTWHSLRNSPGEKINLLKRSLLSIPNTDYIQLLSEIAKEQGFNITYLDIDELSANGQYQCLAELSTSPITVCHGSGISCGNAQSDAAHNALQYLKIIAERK
UniProt P28074: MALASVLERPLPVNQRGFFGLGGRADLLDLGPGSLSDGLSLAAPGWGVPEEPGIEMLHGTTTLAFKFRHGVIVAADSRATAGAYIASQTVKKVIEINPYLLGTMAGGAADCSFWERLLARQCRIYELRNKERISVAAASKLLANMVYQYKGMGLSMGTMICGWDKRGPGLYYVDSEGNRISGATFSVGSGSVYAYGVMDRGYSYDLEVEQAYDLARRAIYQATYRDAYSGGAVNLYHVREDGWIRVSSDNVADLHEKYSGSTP
UniProt P62195, whole entry: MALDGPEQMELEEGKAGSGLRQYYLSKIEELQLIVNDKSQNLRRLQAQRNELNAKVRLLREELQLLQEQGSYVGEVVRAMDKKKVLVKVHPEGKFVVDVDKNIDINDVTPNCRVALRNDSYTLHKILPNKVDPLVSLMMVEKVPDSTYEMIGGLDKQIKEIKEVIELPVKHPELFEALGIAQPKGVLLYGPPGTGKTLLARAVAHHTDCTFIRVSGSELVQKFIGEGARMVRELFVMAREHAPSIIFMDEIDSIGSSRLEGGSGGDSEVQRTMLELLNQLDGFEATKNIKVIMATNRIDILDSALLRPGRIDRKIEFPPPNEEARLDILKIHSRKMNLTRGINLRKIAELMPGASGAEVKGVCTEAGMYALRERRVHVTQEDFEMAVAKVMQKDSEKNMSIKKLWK
UniProt P43686, whole entry: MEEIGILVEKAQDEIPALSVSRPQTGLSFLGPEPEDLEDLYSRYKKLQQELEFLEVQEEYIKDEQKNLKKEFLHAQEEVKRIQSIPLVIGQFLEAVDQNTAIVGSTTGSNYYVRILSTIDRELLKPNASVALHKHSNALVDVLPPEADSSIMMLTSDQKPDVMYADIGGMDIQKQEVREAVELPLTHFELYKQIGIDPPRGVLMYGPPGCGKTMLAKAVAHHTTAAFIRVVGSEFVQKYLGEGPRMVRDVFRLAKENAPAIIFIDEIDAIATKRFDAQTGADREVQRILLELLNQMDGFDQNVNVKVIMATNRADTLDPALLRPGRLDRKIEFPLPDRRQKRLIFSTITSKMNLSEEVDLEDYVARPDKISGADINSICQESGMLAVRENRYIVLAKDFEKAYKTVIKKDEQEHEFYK
UniProt O00592: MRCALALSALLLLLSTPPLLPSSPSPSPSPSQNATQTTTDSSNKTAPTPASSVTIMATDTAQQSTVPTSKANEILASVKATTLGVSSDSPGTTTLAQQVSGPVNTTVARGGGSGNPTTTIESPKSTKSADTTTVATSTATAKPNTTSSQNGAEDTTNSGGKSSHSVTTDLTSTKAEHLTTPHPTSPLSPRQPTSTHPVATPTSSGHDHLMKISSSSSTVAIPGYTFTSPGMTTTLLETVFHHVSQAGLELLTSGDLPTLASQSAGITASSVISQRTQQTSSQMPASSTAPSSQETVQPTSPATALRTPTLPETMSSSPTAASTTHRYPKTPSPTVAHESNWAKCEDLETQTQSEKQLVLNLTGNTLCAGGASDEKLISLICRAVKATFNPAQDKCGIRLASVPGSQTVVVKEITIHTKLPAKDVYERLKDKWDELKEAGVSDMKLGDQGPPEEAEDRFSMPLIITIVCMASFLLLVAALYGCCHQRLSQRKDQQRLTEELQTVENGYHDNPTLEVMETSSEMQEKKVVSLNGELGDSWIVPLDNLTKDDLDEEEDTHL
UniProt Q9BUI4: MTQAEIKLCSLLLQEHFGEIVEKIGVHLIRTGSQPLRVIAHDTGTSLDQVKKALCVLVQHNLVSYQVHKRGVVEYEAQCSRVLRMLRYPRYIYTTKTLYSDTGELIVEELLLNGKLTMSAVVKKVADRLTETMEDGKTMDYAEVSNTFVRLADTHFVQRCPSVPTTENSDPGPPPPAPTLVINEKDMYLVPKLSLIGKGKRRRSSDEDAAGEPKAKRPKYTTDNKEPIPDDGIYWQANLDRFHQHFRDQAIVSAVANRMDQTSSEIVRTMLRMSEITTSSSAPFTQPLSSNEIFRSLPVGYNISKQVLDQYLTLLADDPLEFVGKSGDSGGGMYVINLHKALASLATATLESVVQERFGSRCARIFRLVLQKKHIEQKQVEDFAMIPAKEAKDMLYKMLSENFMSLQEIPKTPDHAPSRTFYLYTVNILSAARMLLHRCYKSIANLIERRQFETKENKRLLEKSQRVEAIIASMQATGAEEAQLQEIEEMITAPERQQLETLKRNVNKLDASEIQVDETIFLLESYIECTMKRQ

The list shows a part of the results.

Compound in this experiment: COc1ccc(Cn2ccc3cc(C)c(C(=O)NO)cc32)cc1
Description: dose-dependent thermal stabilisation call (2D-TPP, DLPTP, 10% FDR) (binary (1 = stabilised)); higher = stabilised by the compound. The conditions noted are these: system: HL-60 intact cells; concentration range 0.04-10 µM. As to the method:
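2D thermal proteome profiling in intact HL-60 cells treated with BRD-3811 (0, 0.04, 0.29, 2, 10 uM) for 90 min at 37 C, then heated 3 min at one of 12 temperatures (42-63.9 C). Soluble protein was quantified by TMT10 MS. The value is the DLPTP call of the paper: dose-dependent thermal stabilisation over all temperatures at 10% FDR (F-test of a dose-response against a flat model); one experiment, one call per tested protein.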
For the target POLDIP2 (UniProt Q9Y2S7), the “dose-dependent thermal stabilisation call” value is inactive: 0.

For the target PTGR2 (UniProt Q8N8N7), the “dose-dependent thermal stabilisation call” value was inactive: 0.

For the target PRPS2 (UniProt P11908), the “dose-dependent thermal stabilisation call” value is active: 1.

In the case of PPP1R10 (UniProt Q96QC0), the “dose-dependent thermal stabilisation call” value was inactive: 0.

PRKACB (UniProt P22694): the “dose-dependent thermal stabilisation call” value was inactive: 0.

On to PODXL2 (UniProt Q9NZ53), for which the “dose-dependent thermal stabilisation call” value was inactive: 0.

POP5 (UniProt Q969H6): the “dose-dependent thermal stabilisation call” value is inactive: 0.

Take PPP1CC (UniProt P36873): the “dose-dependent thermal stabilisation call” value is inactive: 0.

Regarding PQLC1 (UniProt Q8N2U9), the “dose-dependent thermal stabilisation call” value is inactive: 0.

Take POLG (UniProt P54098): the “dose-dependent thermal stabilisation call” value was inactive: 0.

Regarding PPWD1 (UniProt Q96BP3), the “dose-dependent thermal stabilisation call” value was inactive: 0.

With PREP (UniProt P48147), the “dose-dependent thermal stabilisation call” value is inactive: 0.

Take PTAR1 (UniProt Q7Z6K3): the “dose-dependent thermal stabilisation call” value was inactive: 0.

PRKACA (UniProt P17612): the “dose-dependent thermal stabilisation call” value was inactive: 0.

Take PRKCA (UniProt P17252): the “dose-dependent thermal stabilisation call” value is inactive: 0.

With PTEN (UniProt P60484), the “dose-dependent thermal stabilisation call” value was inactive: 0.

Take PSAT1 (UniProt Q9Y617): the “dose-dependent thermal stabilisation call” value is inactive: 0.

For PRDX5 (UniProt P30044), the “dose-dependent thermal stabilisation call” value is inactive: 0.

Take PRPF3 (UniProt O43395): the “dose-dependent thermal stabilisation call” value was inactive: 0.

As to POP7 (UniProt O75817), the “dose-dependent thermal stabilisation call” value is inactive: 0.

PPM2C (UniProt Q9P0J1): the “dose-dependent thermal stabilisation call” value was inactive: 0.

For PSMD8 (UniProt P48556), the “dose-dependent thermal stabilisation call” value is inactive: 0.

With PPP3CA (UniProt Q08209), the “dose-dependent thermal stabilisation call” value was inactive: 0.

For the target PPP1CB (UniProt P62140), the “dose-dependent thermal stabilisation call” value was inactive: 0.

For PPIL2 (UniProt Q13356), the “dose-dependent thermal stabilisation call” value was inactive: 0.

For the target PRKRA (UniProt O75569), the “dose-dependent thermal stabilisation call” value was inactive: 0.

PSMB5 (UniProt P28074): the “dose-dependent thermal stabilisation call” value was inactive: 0.

In the case of POLR2E (UniProt P19388), the “dose-dependent thermal stabilisation call” value is inactive: 0.

Take PTPN1 (UniProt P18031): the “dose-dependent thermal stabilisation call” value is inactive: 0.

Regarding PSMC5 (UniProt P62195), the “dose-dependent thermal stabilisation call” value is inactive: 0.

On to PSMD13 (UniProt Q9UNM6), for which the “dose-dependent thermal stabilisation call” value is inactive: 0.

Take POFUT1 (UniProt Q9H488): the “dose-dependent thermal stabilisation call” value was inactive: 0.

As for PSMC4 (UniProt P43686), the “dose-dependent thermal stabilisation call” value was inactive: 0.

Take PODXL (UniProt O00592): the “dose-dependent thermal stabilisation call” value is inactive: 0.

Turning to POLB (UniProt P06746), the “dose-dependent thermal stabilisation call” value is inactive: 0.

Regarding POLR3C (UniProt Q9BUI4), the “dose-dependent thermal stabilisation call” value was inactive: 0.

In the case of POLR2C (UniProt P19387), the “dose-dependent thermal stabilisation call” value is inactive: 0.

Consider PPCDC (UniProt Q96CD2), for which the “dose-dependent thermal stabilisation call” value was inactive: 0.

PRMT10 (UniProt Q6P2P2): the “dose-dependent thermal stabilisation call” value was inactive: 0.

PRKAA1 (UniProt Q13131): the “dose-dependent thermal stabilisation call” value was inactive: 0.
